Assay [1] has as its target T1, Cut14/SMC2 tagged with 3HA-His6 (wild type) (S. pombe) (UniProt P41003).
T1 sequence: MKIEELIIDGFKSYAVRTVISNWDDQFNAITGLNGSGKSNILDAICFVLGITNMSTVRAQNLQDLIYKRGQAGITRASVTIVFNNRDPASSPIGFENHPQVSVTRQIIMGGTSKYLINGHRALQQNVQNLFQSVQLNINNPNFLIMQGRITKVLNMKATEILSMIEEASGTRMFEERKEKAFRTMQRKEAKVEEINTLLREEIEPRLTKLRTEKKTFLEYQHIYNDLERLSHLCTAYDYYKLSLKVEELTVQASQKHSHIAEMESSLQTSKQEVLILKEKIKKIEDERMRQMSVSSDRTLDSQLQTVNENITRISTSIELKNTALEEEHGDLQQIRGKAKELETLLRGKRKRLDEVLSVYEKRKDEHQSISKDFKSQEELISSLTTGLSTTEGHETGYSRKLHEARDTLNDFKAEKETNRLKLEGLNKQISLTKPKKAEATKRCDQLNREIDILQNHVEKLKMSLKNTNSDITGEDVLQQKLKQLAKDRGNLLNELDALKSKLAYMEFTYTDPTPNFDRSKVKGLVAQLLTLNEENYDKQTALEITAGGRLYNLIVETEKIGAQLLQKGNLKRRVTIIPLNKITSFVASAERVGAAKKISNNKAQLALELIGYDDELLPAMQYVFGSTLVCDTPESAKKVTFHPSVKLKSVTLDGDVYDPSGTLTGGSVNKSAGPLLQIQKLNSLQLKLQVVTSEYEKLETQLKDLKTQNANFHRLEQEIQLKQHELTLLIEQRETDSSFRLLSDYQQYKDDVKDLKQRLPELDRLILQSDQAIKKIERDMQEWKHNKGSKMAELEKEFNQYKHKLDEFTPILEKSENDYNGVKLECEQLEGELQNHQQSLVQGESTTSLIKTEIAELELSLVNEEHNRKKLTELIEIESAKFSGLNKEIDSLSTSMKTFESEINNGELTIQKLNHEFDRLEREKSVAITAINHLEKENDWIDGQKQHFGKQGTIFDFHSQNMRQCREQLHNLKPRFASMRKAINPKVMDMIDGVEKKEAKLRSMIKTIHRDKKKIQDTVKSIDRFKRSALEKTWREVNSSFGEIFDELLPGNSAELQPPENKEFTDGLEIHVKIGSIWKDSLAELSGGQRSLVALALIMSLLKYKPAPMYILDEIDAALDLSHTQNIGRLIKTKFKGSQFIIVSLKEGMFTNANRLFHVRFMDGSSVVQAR
In words: co-purification by Ni affinity chromatography; Cut3 (wild type, mutant or truncated) and His6-tagged Cut14 overproduced together in S. pombe; complex isolated on Ni-beads through the polyhistidine tag; bands seen by SDS-PAGE with CBB or Ponceau S stain.

Assay [2] has as its target T2, Cnd2 tagged with HA and six-histidine (S. pombe) (UniProt Q9Y7R3).
T2 sequence: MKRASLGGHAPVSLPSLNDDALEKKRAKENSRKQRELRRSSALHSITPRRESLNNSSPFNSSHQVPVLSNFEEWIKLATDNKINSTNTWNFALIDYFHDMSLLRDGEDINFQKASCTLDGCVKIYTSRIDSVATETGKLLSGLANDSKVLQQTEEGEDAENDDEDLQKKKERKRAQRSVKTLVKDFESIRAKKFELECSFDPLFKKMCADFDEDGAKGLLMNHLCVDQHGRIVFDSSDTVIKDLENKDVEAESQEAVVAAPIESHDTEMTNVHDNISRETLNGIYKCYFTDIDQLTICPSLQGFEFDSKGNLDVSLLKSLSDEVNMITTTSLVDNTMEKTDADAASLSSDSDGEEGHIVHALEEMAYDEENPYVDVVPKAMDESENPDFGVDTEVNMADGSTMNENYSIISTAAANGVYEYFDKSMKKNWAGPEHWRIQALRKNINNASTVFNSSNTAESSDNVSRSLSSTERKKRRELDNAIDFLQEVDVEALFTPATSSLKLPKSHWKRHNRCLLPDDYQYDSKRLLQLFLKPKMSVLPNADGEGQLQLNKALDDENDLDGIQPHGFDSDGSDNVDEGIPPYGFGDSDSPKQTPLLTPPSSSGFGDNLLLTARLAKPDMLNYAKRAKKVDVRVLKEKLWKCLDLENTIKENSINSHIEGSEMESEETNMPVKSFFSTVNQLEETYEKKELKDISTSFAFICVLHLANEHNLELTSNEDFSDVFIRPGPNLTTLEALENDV
In words: co-purification by affinity chromatography; heteropentameric holocondensin: cut3+, cut14+, cnd1+, cnd2+ and cnd3+ overproduced together in S. pombe; affinity purification through HA- and His6-tagged Cnd2 (methods; the results say tagged Cut14); Cut3 and Cut14 bands seen by SDS-PAGE, autoradiography and CBB stain.

Assay [3] has as its target T3, Cut14 K38T (S. pombe) (UniProt P41003).
T3 sequence: T1 sequence with K38T
In words: co-purification by Ni affinity chromatography; Cut3 (wild type, mutant or truncated) and His6-tagged Cut14 overproduced together in S. pombe; complex isolated on Ni-beads through the polyhistidine tag; bands seen by SDS-PAGE with CBB or Ponceau S stain.

Changes are numbered by the printed parent chain. Names may count otherwise. No constants are given. Whether binding was seen depends on the method and setting. Some binding calls cover weakened binding; strength is not graded here. For some of these results: Sequences can lack the tags named with a protein.

The results in this text go back to PMC4281712, “ATPase-dependent auto-phosphorylation of the open condensin hinge diminishes DNA binding” (Open Biology, 2014).

B1: Cut3/SMC4 (wild type) (protein, UniProt P41004 1-1324)
chain: MSDKGIFRTSSTPSIVDVTPDRGERPRKLVRSVLESPSQKDVASIVKIEQTPSRPFFNDFLKKRITDSLNERPNLLNKFMSAQDGTPSKSTGFNERSSQLVSEFTTTEDIENCEETTQVLPPRLVVYELRLTNFKSYAGTQIVGPFHPSFSSIVGPNGSGKSNVIDALLFVFGFRASKLRQSKASALIHKSATHPSLDSCDVEITFKEVNSDFTYVDGSELTVRRTAYKNNTSKYFVNGVESSFSAVSNLLKEKGIDLNHKRFLILQGEVESIAQMKPRAISEGDDGLLEYLEDIIGTSKYKPIIEENMQELSNSDDICAEKESRLKLVLSEKAKLEDSKNSVLSFLKDENELFMKQNQLYRTILYETRNKKTLVQNLLNSLEGKLQAHLEKFEQTERDISEKNEEVKSLREKAAKVKNDCTSEKKTRQSYEQQTVKIEEQLKFLLNKEKKLKKSIEALSFEKSEAENSLSSHDIDSQKLNSEIADLSLRLQQEELSLDDIRKSLQGKTEGISNAIEEKQKAMAPALEKINQLTSEKQILQVELDMLLNKENDLINDVESSQSSLDKLRNDAEENRNILSSKLKVLSDLKGEKKDVSKNIERKKETVHNTYRNLMSNRTKLEEMKASLSSSRSRGNVLESLQRLHESDNLNGFFGRLGDLATIDEAYDVAISTACPALNHIVVDNIETGQKCVAFLRSNNLGRASFIILKELAQKNLARIQTPENVPRLFDLLRFNDQKFAPAFYNVLQNTLVAKNLEQANRIAYGKTRWRVVTLSGQLIDKSGTMTGGGTRVKKGGMSSAITSDVSPASVETCDKQVQLEDTRYRQHLSELESLNQRFTEISERIPSAELEISKLQLDVSACDRLVAGEERRILQLKSDLKSIRNNNERKRNLQNKISNMDKEVEAININNEGLVTEIKTLQDKIMEIGGIRYRIQKSKVDDLHEQLKFVKDKLNKMSFKKKKNEQRSQSFQVELSNLTSEYDTTTESIATLKTELQSLNKYVDEHKSRLREFENALWDINSSIDELVKFIEFESKQMNSVKAERIELENQIQEQRTALSEVGNNENKYLKLMSNLKLHNLTEFCDQTTMDSTFPEYSEDELSSVDKSELVSNISVLKKKTEDREVDINVLSEYRRCNKEAEKRDSDYQSELQKRTDLKKVVTDLQSQRLDEFMYGFGIISMKLKEMYQIITMGGNAELELVDSLDPFSEGVLFSVMPPKKSWKNISNLSGGEKTLSSLALVFALHNYKPTPLYVMDEIDAALDFKNVSIVANYIKERTKNAQFIVISLRSNMFELSSRLVGIYKTANMTKSVTINNKEILTD
As to B1, the binding entry in assay [1] and in assay [2] was “binds” in each case.

B2: Cut3 K161I (protein, UniProt P41004 1-1324)
chain: B1 chain with K161I
Regarding B2, the binding result in assay [3] is listed as “binds”.

B3: Cut14/SMC2 in holocondensin (protein, UniProt P41003 1-1172)
chain: T1 sequence
In the case of B3, the binding entry in assay [2] is on record as “binds”.
